Experimental data taken from PubChem BioAssay AID2685 (National Center for Advancing Translational Sciences (NCATS), 2010).
The other results are listed elsewhere or left out. The main result of the screen is listed elsewhere. These columns were measured beside it and carry no call. The list favours compounds with an active or inconclusive main result. Potencies come from curve fits of mixed quality, noted in brackets.

Assay: qHTS Assay for Lipid Storage Modulators in Drosophila S3 Cells;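 on cell number change: cells counted by Cell Tracker Red CMTPX staining in the red channel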
Settings: BODIPY lipid droplet fluorescence, 18-24 h; for cell number change: measured here: cell count max response, cells fed with added oleic acid
In short: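 Drosophila S3 cells got compounds at several concentrations plus oleic acid (400 uM solution). Laser-scanning cytometry with 488 nm excitation read lipid droplets at 500-530 nm and cells at 575-640 nm. Percent activity was relative to 20 uM Triacsin C.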

[1] = measured here: lipid fluorescence (Fed channel) AC50, cells fed with added oleic acid
[2] = measured here: cell number channel AC50, cells fed with added oleic acid

| Compound | cell number change [%] | AC50 [1] | AC50 [2] |
| --- | --- | --- | --- |
| O=C(c1ccc(F)cc1)C1CCN(C(=O)c2ccncc2)CC1 | -1.25 | 6.51 µM [rising, single point] | – |
| COc1ccc(NCc2nnc(SCC(=O)Nc3ccccc3OC)o2)cc1 | 27.8 | 6.51 µM [falling, single point] | – |
| O=C(NCc1ccc2[nH]c3c(c2c1)CCCC3)c1ccc(S(=O)(=O)N2CCOCC2)cc1 | – | – | 0.58 µM [rising, single point] |
| CCOc1ccc(OCCC(=O)OCC(=O)Nc2ccc(Cl)cn2)cc1 | 25 | 0.731 µM [rising, partial curve, poor fit] | – |
| Cc1ccccc1N(CC(=O)NCCc1ccccc1)C(=O)c1csnn1 | 24.4 | – | – |
| C=CCN1C(=O)C(CC(=O)Nc2ccc(C)cc2)SC1=Nc1c(C)n(C)n(-c2ccccc2)c1=O (stereo unspecified) | – | 6.51 µM [rising, single point] | – |
| Cc1ccc(-n2c(C)c(C)c3c(NCCO)ncnc32)cc1 | 5.67 | – | – |
| Cc1cc(CNC(=O)c2cccc([N+](=O)[O-])c2C)c2ccccc2n1 | 20.6 | – | – |
| CC(C)(NC(=O)c1ccccc1)c1nc2ccccc2s1 | -24.3 | 2.31 µM [rising, partial curve, poor fit] | – |
| CCN1C(=O)[C@H]2[C@@H](c3ccc(C)cc3)N3C(=O)N(c4cccc(F)c4)C(=O)[C@@]3(CC)[C@H]2C1=O | 8.74 | 5.17 µM [rising, full curve] | – |
| COc1ccc(CN2CCN(CCCc3ccccc3)C(CCO)C2)c(O)c1 (stereo unspecified) | 12.9 | 29.1 µM [rising, single point] | – |
| Cc1cc(C)n2nc(C(=O)Nc3cccc(S(=O)(=O)N(C)c4ccccc4)c3)nc2n1 | – | 9.2 µM [falling, partial curve] | – |
| Cc1cc2c(cc1S(=O)(=O)N(C)Cc1ccccc1)OCC(=O)N2 | 9.51 | – | – |
| Cc1ccc2nc(-c3ccncc3)cc(C(=O)Nc3ccc(F)cc3C)c2c1 | 30.4 | 2.51 µM [rising, partial curve] | 2.24 µM [rising, partial curve] |
| CC(=O)Nc1ccc(S(=O)(=O)NCCC(=O)OCC(=O)c2ccc(F)c(F)c2)cc1 | 2.27 | – | – |
| CC1CCN(C(=O)CC2C(=O)Nc3c2c(=O)n(C)c(=O)n3Cc2ccccc2)CC1 (stereo unspecified) | – | 18.4 µM [rising, single point] | – |
| COc1ccc(S(=O)(=O)N2CCC(C(=O)N[C@@H](C)C(=O)NCc3ccccc3OC)CC2)cc1 | – | 29.1 µM [rising, single point] | – |
| Cc1c(NC(=O)CN2CCN(C(=O)c3ccco3)CC2)c(=O)n(-c2ccccc2)n1C | -16 | 0.103 µM [falling, full curve, poor fit] | – |
| COc1ccc(-n2nc(C(=O)NCC(=O)Nc3ccccn3)c3ccccc3c2=O)cc1Cl | 60.6 | – | 20.6 µM [rising, partial curve, poor fit] |

10 entries from above, bar-delimited.
Compound | cell number change [%] | AC50 [1] | AC50 [2]
COc1ccc(NCc2nnc(SCC(=O)Nc3ccccc3OC)o2)cc1 | 27.8 | 6.51 µM [falling, single point] | –
O=C(NCc1ccc2[nH]c3c(c2c1)CCCC3)c1ccc(S(=O)(=O)N2CCOCC2)cc1 | – | – | 0.58 µM [rising, single point]
CCOc1ccc(OCCC(=O)OCC(=O)Nc2ccc(Cl)cn2)cc1 | 25 | 0.731 µM [rising, partial curve, poor fit] | –
Cc1ccccc1N(CC(=O)NCCc1ccccc1)C(=O)c1csnn1 | 24.4 | – | –
C=CCN1C(=O)C(CC(=O)Nc2ccc(C)cc2)SC1=Nc1c(C)n(C)n(-c2ccccc2)c1=O (stereo unspecified) | – | 6.51 µM [rising, single point] | –
Cc1ccc(-n2c(C)c(C)c3c(NCCO)ncnc32)cc1 | 5.67 | – | –
Cc1cc(CNC(=O)c2cccc([N+](=O)[O-])c2C)c2ccccc2n1 | 20.6 | – | –
CC(C)(NC(=O)c1ccccc1)c1nc2ccccc2s1 | -24.3 | 2.31 µM [rising, partial curve, poor fit] | –
CCN1C(=O)[C@H]2[C@@H](c3ccc(C)cc3)N3C(=O)N(c4cccc(F)c4)C(=O)[C@@]3(CC)[C@H]2C1=O | 8.74 | 5.17 µM [rising, full curve] | –
COc1ccc(CN2CCN(CCCc3ccccc3)C(CCO)C2)c(O)c1 (stereo unspecified) | 12.9 | 29.1 µM [rising, single point] | –

Later entries:

| Compound | cell number change [%] | AC50 [1] | AC50 [2] |
| --- | --- | --- | --- |
| CCN(CC(=O)Nc1ccc(NC(C)=O)cc1)CC(=O)Nc1cc(C)on1 | – | 29.1 µM [rising, single point] | – |
| CN(C)c1cc(NC(=O)CNC(C)(C)CC(C)(C)C)c2ccccc2n1 | -13.3 | 3.26 µM [rising, single point] | 0.0058 µM [falling, full curve, poor fit] |
| COc1ccc(C(=O)Nc2ccccc2N2CCOCC2)cc1[N+](=O)[O-] | 19.9 | 9.2 µM [rising, single point] | – |
| CCc1ccccc1NC(=O)CN(C1CCCCC1)S(C)(=O)=O | -25.5 | 11.6 µM [falling, partial curve] | – |
| Cc1cccc(OCC(O)CN2CCN(C3CCCCC3)CC2)c1 (stereo unspecified) | -1.53 | 2.31 µM [falling, single point] | – |
| COC(=O)C(Cc1ccccc1)NC(=O)CNC(=O)c1ccc(Br)cc1 (stereo unspecified) | 38.5 | 29.1 µM [falling, single point] | 23.1 µM [rising, single point] |
| C/C(=N\NC(=O)c1nn(C)cc1Br)c1ccncc1 | 4.07 | 6.51 µM [rising, single point] | – |
| COc1ccc(C(=O)Nc2nnc(C)s2)cc1S(=O)(=O)N1CCOCC1 | -20 | 14.6 µM [falling, single point] | – |
| CC(C)Nc1nc(-c2ccncc2)nc(-c2ccc(Cl)cc2)c1C#N | 25.8 | 2.31 µM [rising, partial curve] | 2.06 µM [rising, partial curve] |
| Cc1cccc(C(=O)Nc2ccc(C(=O)/C=C/c3cccnc3)cc2)c1 | -20.9 | 1.64 µM [falling, partial curve] | – |
| COc1ccc([C@H]2CC(=O)C=C(c3ccc(Cl)cc3C)C2)cc1 | -14 | 0.517 µM [falling, partial curve, poor fit] | – |
| CCOc1ccc(S(=O)(=O)N2CCN(c3ccccc3F)CC2)c2cccnc12 | 21.1 | 8.2 µM [rising, partial curve] | – |
| Cc1cc(C)n(CC(=O)Nc2ccccc2)n1 | -10.3 | 6.51 µM [rising, single point] | – |
| O=C(Cn1cnc2ccccc2c1=O)Nc1ccc2c(c1)OCO2 | 28.6 | 1.3 µM [rising, full curve] | 1.16 µM [rising, full curve, poor fit] |
| COc1ccc(C2CC(=O)C(C3NCCc4ccccc43)=C(O)C2n2cncn2)cc1 (stereo unspecified) | 24.4 | 29.1 µM [falling, single point] | – |
| CC1CCCN(c2nc(-c3cccnc3)nc3scc(-c4ccccc4)c23)C1 (stereo unspecified) | -41.7 | – | 29.1 µM [falling, single point] |
| COc1ccc(C(=O)N/C(=C\c2ccccc2)C(=O)N2CCOCC2)cc1 | – | 0.461 µM [rising, single point] | 0.461 µM [rising, single point] |
| CC(=O)Nc1ccc(N2C(=O)c3cccc4c(O)ccc(c34)C2=O)cc1 | -101 | 2.06 µM [falling, partial curve] | 5.17 µM [falling, full curve] |
| CC(C)(C)c1ccc(C(=O)NC(=S)NCc2ccco2)cc1 | 136 | 23.1 µM [rising, partial curve] | 14.6 µM [rising, partial curve] |
| Cc1ccc(SC2=C(Sc3ccc(C)cc3)C(=O)c3ccccc3C2=O)cc1 | -51.2 | 13 µM [falling, partial curve] | 6.51 µM [falling, partial curve] |

| Compound | cell number change [%] | AC50 [1] | AC50 [2] |
| --- | --- | --- | --- |
| O=C(CN(C1CC1)S(=O)(=O)c1ccc(S(=O)(=O)NC2CCCCC2)cc1)Nc1ccccc1 | -37.8 | 20.6 µM [falling, partial curve] | 16.4 µM [falling, partial curve] |
| COc1ccccc1N1CCN(C(=O)c2ccc3c(c2)CCN3S(=O)(=O)c2ccccc2)CC1 | 4.25 | 0.58 µM [rising, single point] | – |
| COc1ccccc1NC(=O)C1CCCN1C(=O)NCc1ccccc1 (stereo unspecified) | -2.79 | 2.59 µM [falling, full curve, poor fit] | – |
| O=C(Nc1ccccc1)OCCNC(=O)c1cccc(Cl)c1 | – | 6.51 µM [falling, single point] | – |
| Cc1noc(C)c1S(=O)(=O)N1CCC(C(=O)NCCN2CCC(C)CC2)CC1 | -30.4 | 23.1 µM [falling, single point] | 29.1 µM [falling, single point] |
| Cc1noc(C(=O)Nc2cc(Cl)ccc2O)c1Cl | -8.33 | – | – |
| O=C(Nc1ccc(F)cc1)Nc1csc2ccccc12 | -51 | 29.1 µM [falling, single point] | 23.1 µM [falling, single point] |
| Cc1ccc(CN2C(=O)CCC2C(=O)NC2CC2)cc1 (stereo unspecified) | 37.4 | – | 10.3 µM [rising, single point] |
| COc1ccc(CC(=O)OCC(=O)Nc2ccc(Br)cc2)cc1 | – | – | 0.0291 µM [falling, full curve, poor fit] |
| COC(=O)CSc1nc2cc3c(cc2cc1C)OCCO3 | -6.53 | – | – |
| CCc1ccc(N2CC(C(=O)OCc3nc4ccsc4c(=O)[nH]3)CC2=O)cc1 (stereo unspecified) | -60.3 | 29.1 µM [falling, single point] | 29.1 µM [falling, single point] |
| COc1ccc(C(CNC(=O)c2cc(C)oc2C)N2CCOCC2)cc1 (stereo unspecified) | -6.09 | – | – |
| COc1ccc(NC(=O)COc2ccccc2Cl)cc1S(=O)(=O)N1CCCCC1 | -100 | – | 1.3 µM [falling, partial curve] |
| O=[N+]([O-])c1cncc([N+](=O)[O-])c1Nc1ccccc1Cl | 27.4 | 23.1 µM [rising, single point] | 4.11 µM [rising, single point] |
| Nc1nc(CSc2nc3ccccc3s2)nc(Nc2ccccc2)n1 | -32 | 29.1 µM [falling, single point] | 18.4 µM [falling, single point] |
| Cc1noc(C)c1COC(=O)c1ccc(-c2nc3ccccc3s2)s1 | -22.9 | – | – |
| CCOC(=O)C1CCN(c2c(NCCC(C)C)c(=O)c2=O)CC1 | – | 6.51 µM [falling, single point] | – |
| CN(Cc1nc(-c2cccnc2)no1)S(=O)(=O)c1ccc(Br)cc1 | – | 0.58 µM [rising, single point] | – |
| CSc1nc2ccc(S(=O)(=O)N3CCc4ccccc43)cc2s1 | -24.6 | – | – |
